Out of some 2,200 compounds screened, about 15 (0.7%) were called active.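 Rule for the calls: active = fitted half-maximal concentration for loss of luminescence signal no more than a set limit of log units above the top tested concentration; inconclusive = flat fit with 30 to 70% signal loss, or invalid fit; inactive = half-maximal concentration above that set limit.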 The list shows a part of the results.
assay: inhibitors of ADP-Glo detection reagents, dose response, artefact control for GSK3beta inhibitor project, biochemical, luminescence, cell-free, homogeneous (AID 434947); details: 5 uM ADP;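 note: kinase-free counter screen of ADP-Glo detection reagents for GSK3beta hits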

EC50, inactive:
COCCn1c(SCC(=O)Nc2nc(C)c(Cl)cc2Cl)nc2ccccc21 > 30 µM
Cc1ccc(C(=O)c2coc3ccc(O)c(Cl)c23)cc1 > 30 µM
CCCc1cc(=O)oc2cc(C)c3c(C)coc3c12 > 30 µM
Cc1nnc(SCC(=O)N2CCC(C(=O)Nc3nccs3)CC2)n1Cc1ccccc1 > 30 µM
CN(C)C=NC(=O)/C(C#N)=C1\CCc2ccccc2N1 > 30 µM
COc1ccc(NC(=O)c2sc(=S)[nH]c2N)cc1 > 30 µM
Clc1ccccc1Nc1nc(-c2ccncc2)nc2ccccc12 > 30 µM
COCCCn1c(-c2ccc(OC)cc2)nc2nc3ccccc3nc21 > 30 µM
Cc1ccccc1-c1nc(CN2CCC(C(=O)N3CCN(c4ccccn4)CC3)CC2)c(C)o1 > 30 µM
CCCN(CCC)Cc1c(C(=O)N/N=C/c2ccsc2)nnn1-c1nonc1N > 30 µM
Cc1ccc(C(=O)Nc2ccccc2C(=O)NCc2ccco2)cc1S(=O)(=O)N1CCCCC1 > 30 µM
O=C(Nc1ccccn1)c1ccc(C(=O)Nc2ccccn2)cc1 > 30 µM
CC(C(=O)NCc1ccccc1)n1cc([N+](=O)[O-])cn1 (stereo not drawn) > 30 µM
O=C(O/N=C\c1ccc(N2CCCCC2)c([N+](=O)[O-])c1)c1ccc(Cl)cc1Cl > 30 µM
Cn1c(=O)c2[nH]c(CN(Cc3ccccc3)Cc3ccccc3)nc2n(C)c1=O > 30 µM
Oc1ccc(CNCC2COc3ccccc3O2)cc1 (stereo not drawn) > 30 µM
Cc1ccc(OCCn2c(=S)[nH]c3c(N)ncnc32)cc1 > 30 µM
Nc1ccccc1Nc1cc(-c2ccccc2)[nH]n1 > 30 µM
Cc1cnc(C(=O)OCC(=O)N2c3ccccc3CC2C)cn1 (stereo not drawn) > 30 µM
COc1ccc(/C=N/Nc2ccc([N+](=O)[O-])cc2)cc1O > 30 µM
COc1ccccc1Nc1nc(N(C)c2ccccc2)nc(N)c1[N+](=O)[O-] > 30 µM
NNc1ncnc2c1cnn2-c1ccccc1 > 30 µM
Cc1ccc(C)c(N2CCN(C(=O)Cn3ncc4c([nH]c5ccc(C)cc54)c3=O)CC2)c1 > 30 µM
Cc1cc(OCCCn2ccnc2)ccc1[N+](=O)[O-] > 30 µM
CNc1nc(N)c([N+](=O)[O-])c(Nc2ccccc2OC)n1 > 30 µM
O=c1[nH]c(N/N=C/c2ccccc2)nc2ccccc12 > 30 µM
CC1=C(C(=O)OCc2ccccc2)C(c2ccccc2OC(F)F)NC(=O)N1 (stereo not drawn) > 30 µM
COC(=O)c1ccc(N2C(=O)CC(N3CCN(C(=O)c4ccco4)CC3)C2=O)cc1 (stereo not drawn) > 30 µM
COc1cccc2c1cc1c(=O)n(CC(=O)NCc3ccccn3)nc(C)n12 > 30 µM
CCn1c(-c2nn(C)cc2Cl)n[nH]c1=S > 30 µM
CCN(CC)Cc1c(O)ccc2occ(C(=O)c3ccc(OC)cc3)c12 > 30 µM
CC(=O)Nc1c(N)c2ccccc2oc1=O > 30 µM
CCOC(=O)c1cnc2ccc(C(=O)OC)cc2c1Nc1ccc(C(=O)O)cc1 > 30 µM
Cc1ccc2c(c1)NC(c1cccs1)C1=C(CC(C)(C)CC1=O)N2 (stereo not drawn) > 30 µM
CC(=O)c1ccc(NC(=O)NNS(=O)(=O)c2ccc([N+](=O)[O-])cc2)cc1 > 30 µM
Nc1nc(NCCO)nc(NCc2ccccc2)c1[N+](=O)[O-] > 30 µM
COc1ccccc1Nc1nc(NCc2ccco2)nc(N)c1[N+](=O)[O-] > 30 µM
CCc1ccc(C(=O)c2cnc3ccc(OC)cc3c2N2CCN(CC)CC2)cc1 > 30 µM
Cc1cc2c(N3CCCCC3C)ncnc2s1 (stereo not drawn) > 30 µM
CCC(C)Nc1nc(N)c([N+](=O)[O-])c(NC2CCCCC2)n1 (stereo not drawn) > 30 µM
COc1cc(/C=N/NC(=O)COc2ccccc2[N+](=O)[O-])ccc1OC(=O)c1ccco1 > 30 µM
O=[N+]([O-])c1ccc2[nH]c(O)c(N=NC3CS(=O)(=O)CC3O)c2c1 (stereo not drawn) > 30 µM
COc1ccc(Nc2nc3ccccc3s2)cc1 > 30 µM
COc1ccc(-c2nn(CCC(=O)O)cc2/C=C/C(=O)O)cc1[N+](=O)[O-] > 30 µM
COc1cc(/C=N/Nc2ccc(C(F)(F)F)cn2)ccc1O > 30 µM
CC1CCCCN1c1nnc(N)s1 (stereo not drawn) > 30 µM
CCOC(=O)c1cnc2ccc(OCC)cc2c1N1CCN(C)CC1 > 30 µM
CCn1nc(NC(=O)C2CCCO2)c2cc3cccc(C)c3nc21 (stereo not drawn) > 30 µM
Cc1cc(=O)[nH]c(N/N=C/c2ccc(-c3ccc([N+](=O)[O-])cc3)o2)n1 > 30 µM
CSc1nc2c(c(=O)[nH]1)C(c1cccs1)C1=C(CCCC1=O)N2 (stereo not drawn) > 30 µM
Cc1[nH][nH]c(=O)c1N=Nc1ccc(S(N)(=O)=O)cc1 > 30 µM
COc1ccc(C2=NOC(C(=O)Nc3cccnc3)C2)cc1 (stereo not drawn) > 30 µM
O=C(NCC(c1ccco1)N1CCc2ccccc21)c1cccc([N+](=O)[O-])c1 (stereo not drawn) > 30 µM
CCCN(CCC)CCCNc1ccc2nnc(-c3ccc(F)cc3)n2n1 > 30 µM
COc1ccc(CCNC(=O)CN2CCOc3ccccc32)cc1OC > 30 µM
CCCCOC(=O)C1=C(C)Nc2ncnn2C1c1cccc(OC)c1OC (stereo not drawn) > 30 µM
O=C(O)c1cccc(Nc2ccnc(Nc3cccc(C(=O)O)c3)n2)c1 > 30 µM
COc1ccc(-c2cc(=O)oc3c(C)c(O)ccc23)cc1 > 30 µM
Cc1c(C(=O)O)sc2ncnc(N3CCCCC3C)c12 (stereo not drawn) > 30 µM
O=c1cc(-c2ccccc2Cl)oc2ccc([N+](=O)[O-])c(O)c12 > 30 µM
C=CCNC(=O)/C(=C\c1cccc([N+](=O)[O-])c1)NC(=O)c1ccccc1 > 30 µM
CC(C)N(Cc1nnc(-c2ccc(Cl)cc2)o1)C(=O)C1=COCCO1 > 30 µM
COc1ccc(CNC(=O)CN(Cc2ccc(OC)cc2)C(=O)CCC(=O)Nc2nccs2)cc1 > 30 µM
COc1cccc(C(=O)CC(C#N)c2ccc(F)cc2)c1 (stereo not drawn) > 30 µM
COc1cccc2c1cc1c(=O)n(CC(=O)N3CCC(C)CC3)nc(C)n12 > 30 µM
CCOc1ccccc1NC(=O)c1nnn(-c2ccc3c(c2)OCCO3)c1N > 30 µM
CC1(C)CC(=O)C2=C(C1)Nc1ncnn1C2c1cccs1 (stereo not drawn) > 30 µM
COc1ccccc1/C=C1\C(=O)Nc2ccccc21 > 30 µM
CCn1c(SCC(=O)NNC(=O)c2ccc(C)cc2)nnc1C1CC1 > 30 µM
Cc1ccc(-n2c(C)c([N+](=O)[O-])c3ccc(O)cc32)cc1 > 30 µM
CCN1CCN(C(=O)Cn2nc(C)n3c(cc4c(OC)cccc43)c2=O)CC1 > 30 µM
CC(OC(=O)c1nsc(Cl)c1Cl)C(=O)NCc1ccco1 (stereo not drawn) > 30 µM
Cc1ccc(S(=O)(=O)N/N=C\c2cn(-c3ccccc3)nc2-c2ccccc2)cc1 > 30 µM
CN1CCN(c2nc(-c3ccccc3)nc(-c3ccccc3)c2C#N)CC1 > 30 µM
Cc1nnc2n(-c3ccccc3)c(=O)c3c4c(sc3n12)COC(C)(C)C4 > 30 µM
Oc1ccc(/C=N/Nc2ncnc3nc[nH]c23)cc1 > 30 µM
CC1CCCCN1c1cc(C#N)c(C#N)cc1[N+](=O)[O-] (stereo not drawn) > 30 µM
O=C(O)c1ccc(/C=N/Nc2ccc(C(F)(F)F)cn2)cc1 > 30 µM
O=C(CSc1nnc(-c2ccncc2)n1-c1ccc(F)cc1)NC(=O)NCc1ccco1 > 30 µM
Cc1[nH]n(-c2ccccc2)c(=O)c1/C=N/NC(=O)COc1ccccc1[N+](=O)[O-] > 30 µM
CCN(CC)S(=O)(=O)c1cccc(N2CC(O)=C(c3ccccc3)C2=N)c1 > 30 µM
CCN(CC)Cc1c(O)ccc2c1O/C(=C\C=C\c1ccccc1)C2=O > 30 µM
Nc1nonc1-n1nnc(C(=O)N/N=C/c2cccc(Cl)c2)c1CN1CCCC1 > 30 µM
Nc1nc(Nc2ccccc2F)sc1C(=O)c1ccccc1 > 30 µM
CCCCOC(=O)c1ccc(O)cc1 > 30 µM
Cc1ccc(Cc2cnc(NC(=O)C3CCCO3)s2)cc1 (stereo not drawn) > 30 µM
CCN1CCN(CC2COc3ccccc3O2)CC1 (stereo not drawn) > 30 µM
CCOc1ccc(/C=N/Nc2ccccn2)cc1OC > 30 µM
O=C(c1ccc(Br)cc1)c1coc2ccc(O)cc12 > 30 µM
CN(Cc1c(C(=O)N/N=C/c2ccc(O)cc2)nnn1-c1nonc1N)C1CCCCC1 > 30 µM
CCSc1nc2sc3c(c2c(=O)n1-c1ccccc1)CCN(C)C3 > 30 µM
Nc1nc(NCCOCCO)nc(NCc2ccccc2)c1[N+](=O)[O-] > 30 µM
COc1ccc(NC(=S)Nc2cccc(Cl)c2Cl)cc1OC > 30 µM

4 compounds picked at random from those above, as already listed:
EC50, inactive:
O=C(O/N=C\c1ccc(N2CCCCC2)c([N+](=O)[O-])c1)c1ccc(Cl)cc1Cl > 30 µM
Cc1ccc(OCCn2c(=S)[nH]c3c(N)ncnc32)cc1 > 30 µM
O=c1[nH]c(N/N=C/c2ccccc2)nc2ccccc12 > 30 µM
CCC(C)Nc1nc(N)c([N+](=O)[O-])c(NC2CCCCC2)n1 (stereo not drawn) > 30 µM

Of the compounds above, 2 contain a CF3 group:
EC50, inactive:
COc1cc(/C=N/Nc2ccc(C(F)(F)F)cn2)ccc1O > 30 µM
O=C(O)c1ccc(/C=N/Nc2ccc(C(F)(F)F)cn2)cc1 > 30 µM

— PubChem BioAssay AID434947 (Broad Institute, 2010)
